Test results taken from US8858962B2, “Adjuvant or pharmaceutical preparation for transdermal or transmucosal administration” (priority 2005, dated 2014).
For at least one compound, name, drawing or mass did not settle the structure.

System: BALB/c mice
Test: Skin irritation score, intradermal vs transdermal administration
Type: in vivo
Settings: shaved abdomen

CCCCCCCCCCC(CO)CCCCCCCC (centres unmarked) [Octyldodecanol, octyldodecanol]
Skin irritation score, Intradermal administration (25 uL undiluted adjuvant intradermally): +
Skin irritation score, Transdermal administration (50 uL of acetone solution (50%) transdermally): −
